PubChem BioAssay AID504467 (National Center for Advancing Translational Sciences (NCATS), 2011)
The campaign covered roughly 330,000 compounds. About 7,700 (2.3%) were called active. The inconclusive results got no clear call from the source; some entries with a clear call stand among them for comparison. The call rests on the fitted dose curve; in most records, active means well fitted inhibition curve with a large enough effect; inconclusive means small, poorly fitted or top-dose-only effect, or effect the other way; inactive means flat fitted curve, though single readings scatter. Potencies of inconclusive entries are doubtful fits and often do not repeat.

assay: qHTS screen for small molecules that inhibit ELG1-dependent DNA repair in human embryonic kidney (HEK293T) cells expressing luciferase-tagged ELG1; conditions: HEK293T ELG1-luciferase reporter, luminescence, 16 h, DNA damage induced by 5-fluorouridine; activity change, negative = inhibition: at 46.1 µM (top of the series); further: nearly all actives have a fitted effect of over 55% in size
Summary of the method: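 In this reporter screen, reduction of luminescence relative to DMSO vehicle indicated activity. Compounds and 5-fluorouridine were added together to 2,000 cells per well, incubated for 16 hr at 37 °C, then developed with ONE-Glo.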
On the % scale 0 is the no-effect control and ±100 the full control effect; potency means the concentration at half of the fitted maximal effect.

Structure (SMILES)	activity change, negative = inhibition	Potency
O=C(c1ccccc1Cl)N1CCNCC1	inactive: -4.73%	
Cc1ccc(C2CC2C(=O)NNC(=S)Nc2ccc(Cl)cc2)cc1 (stereo not given)		inconclusive: 0.259 µM [inhibitor, single point]
COc1ccc(CSc2n[nH]c(C)n2)cc1[N+](=O)[O-]	inactive: 26.4%	
CCOc1ccc(NC(=O)Nc2cccnc2)cc1		inconclusive: 14.6 µM [activator, partial curve]
O=C(c1ccc(Cl)cc1)c1c[nH]c(C(=O)NNc2ccccc2)c1	inactive: -20.9%	
NC(=O)c1ccc(NC(=O)C2CC(=O)N(c3ccc4c(c3)OCCO4)C2)cc1 (stereo not given)		inconclusive: 14.6 µM [activator, partial curve, poor fit]
CCC(c1nnnn1Cc1cccs1)N1CCN(c2nc3ccccc3s2)CC1 (stereo not given)		inconclusive: 29.1 µM [inhibitor, single point]
Cc1cccc(/C=N/n2c(-c3cc(-c4ccccc4)n[nH]3)n[nH]c2=S)c1		inconclusive: 8.2 µM [activator, partial curve]
CC(C)c1nc(C#N)c(NN)o1		inconclusive: 20.6 µM [activator, single point]
CSc1ccccc1C(=O)NC1CCCN(c2ccc(C(F)(F)F)cn2)C1 (stereo not given)	inactive: 6.69%	
O=C1c2ccccc2C(=O)N1c1cccc(-c2csc(Nc3ccc4c(c3)OCO4)n2)c1		inconclusive: 9.2 µM [activator, partial curve, poor fit]
O=C(O)CC1NC(=O)N(C2CCCCC2)C1=O (stereo not given)	inactive: -11.9%	
COc1ccc(-c2nc(NC(=O)c3[nH]c(C)c(C(C)=O)c3C)sc2C)cc1		inconclusive: 29.1 µM [inhibitor, single point]
O=C(NCc1cccnc1)c1nc(-c2ccc(C(F)(F)F)cc2)no1		inconclusive: 23.1 µM [inhibitor, single point]
CCOc1cc(C)c(Cl)cc1S(=O)(=O)n1ccnc1	inactive: -1.96%	
Cc1ccc(CNc2ccc(Cl)cc2[N+](=O)[O-])cc1		inconclusive: 20.6 µM [activator, single point]
CN(CC(=O)Nc1c(Cl)cccc1Cl)C(=O)C1CC(=O)N(Cc2ccccc2)C1 (stereo not given)	inactive: 13.4%	
CCOc1ccc(NC(=O)CSc2ncc(-c3ccc(F)cc3)n2Cc2ccco2)cc1		active: 16.4 µM
Fc1ccc(/C=N/n2c(C3CCCCC3)n[nH]c2=S)cc1	inconclusive: 63.5% [activator]	
Cc1nnc(NC(=O)Oc2ccccc2)s1	inactive: 9.96%	
Cc1ccc(C)c(N2CCN(C(=O)C3CCCCN3S(=O)(=O)c3ccc(F)cc3)CC2)c1 (stereo not given)		inconclusive: 20.6 µM [inhibitor, single point]
O=C1/C(=C/c2ccco2)Cc2ccccc21		inconclusive: 20.6 µM [activator, partial curve]
COc1cccc(NC(=O)COC(=O)CCS(=O)(=O)c2ccc(C)cc2)c1	inactive: 23.1%	
O=C1[C@@H](Oc2ccccc2)[C@@H](c2ccccc2)N1c1ccccc1	inactive: 18.8%	
COc1ccc(Cl)cc1NC(=O)c1cc(-c2ccccc2O)n[nH]1	inactive: 13.4%	

Structure (SMILES)	activity change, negative = inhibition	Potency
CN(CC(=O)Nc1ncn[nH]1)S(=O)(=O)c1cc(Cl)ccc1Cl	inactive: 6.83%	
S=C1NCN(Cc2ccco2)CN1CCc1ccccc1	inactive: -10.3%	
CCOC(=O)c1ccc(N2C(=O)c3n[nH]c(C)c3C2c2cccnc2)cc1 (stereo not given)	inactive: -16.6%	
O=C(CSc1ncnc2ccccc12)Nc1ccc2c(c1)OCCO2	inactive: 11.7%	
CCOc1ccc(/C=C2\SC(=S)N(CCC(=O)N(CCO)c3ccccc3)C2=O)cc1	inactive: -17.9%	
COc1ccc(-n2c(C)cc(/C=C3\SC(=S)NC3=O)c2C)cc1		inconclusive: 3.26 µM [activator, full curve]
CNC(=S)N(Cc1ccco1)Cc1cc2cc(OC)ccc2[nH]c1=O		inconclusive: 29.1 µM [inhibitor, single point]
CN(C(=O)COc1ncnc2c1cnn2-c1ccccc1)C1CCCCC1		inconclusive: 23.1 µM [inhibitor, partial curve]
CCS(=O)(=O)NCCc1csc(-c2ccc(OC)c(OC)c2)n1	inactive: -0.159%	
COc1ccc(C2CC(c3ccccc3OC(C)=O)=NN2C(=O)/C=C/c2ccccc2)cc1OC (stereo not given)		inconclusive: 25.9 µM [inhibitor, partial curve, poor fit]
O=C(CC1C(=O)NCCN1Cc1ccccc1C(F)(F)F)NC1CCCCCC1 (stereo not given)		inconclusive: 1.16 µM [inhibitor, single point]
CC(C)Cn1c(N)c(C(=O)COC(=O)CCc2nc3ccccc3c(=O)[nH]2)c(=O)n(C)c1=O		inconclusive: 20.6 µM [inhibitor, single point]
CCOc1ccc(C(=O)Cc2cc(OC)c(OC)cc2[N+](=O)[O-])cc1	inactive: 27.5%	
Cc1nc(C)c(CCNC(=O)c2ccccc2)s1	inactive: 16.5%	
O=C(CSc1nnc(NC(=O)c2cc(Br)ccc2Cl)s1)NCC1CCCO1 (stereo not given)	inactive: -7.56%	
O=C1c2ccccc2C(=O)C1(CO)c1ccccc1		inconclusive: 20.6 µM [activator, partial curve]
Clc1ccc(OCCCn2ccnc2)c(Br)c1		inconclusive: 8.2 µM [activator, partial curve, poor fit]
Cc1cccc(-c2nnc(SCC(=O)N3CCCC3)o2)c1		inconclusive: 20.6 µM [activator, partial curve]
CCOc1ccc(-n2c(SCC(=O)Nc3cc(C)on3)nc3c(c2=O)SCC3)cc1	inactive: 8.41%	
Cn1c(N/N=C/c2cc3ccccc3nc2Cl)nc2ccccc21		inconclusive: 0.517 µM [activator, full curve]
O=c1[nH]c(COc2ccc(Cl)cc2Br)nc2ccccc12		inconclusive: 16.4 µM [activator, partial curve]
COc1ccc(CCNC(=O)c2[nH]c(C)c(C(C)=O)c2C)cc1OC	inactive: -1.44%	
N#Cc1cc2c(nc1SCC1COc3ccccc3O1)CCC2 (stereo not given)		inconclusive: 14.6 µM [activator, partial curve]
COc1ccccc1CNC(=S)Nc1ccc2nc(N3CCN(C)CC3)cc(C)c2c1		inconclusive: 29.1 µM [inhibitor, single point]
CC(=O)c1ccc(N2CCN(C(=O)Cc3ccccc3)CC2)c(F)c1	inactive: -12.1%	

Structure (SMILES)	activity change, negative = inhibition	Potency
CCNC(=S)Nc1ccccc1-c1ccccc1	inactive: -0.959%	
O=C(CSc1n[nH]c(=O)[nH]c1=O)Nc1ccc2c(c1)C(=O)c1ccccc1C2=O		inconclusive: 14.6 µM [activator, partial curve, poor fit]
COc1ccc(NS(=O)(=O)c2cccc(C(=O)NC3CCC(O)CC3)c2)cc1 (stereo not given)	inactive: -18.7%	
COc1cc(NC(=O)C(C)C)ccc1NC(=O)c1ccco1		inconclusive: 3.66 µM [activator, full curve]
CCSc1nnc(NC(=O)c2cccnc2Cl)s1		inconclusive: 23.1 µM [activator, single point]
CC1=C(C(=O)OC(C)C)C(c2ccc(C)o2)NC(=O)N1 (stereo not given)	inactive: 4.42%	
COc1ccc2[nH]c(C(=O)N/N=C/c3ccc(OC)c(O)c3)cc2c1		inconclusive: 4.11 µM [inhibitor, partial curve]
COc1ccc(N(CC(O)Cn2nnc3ccccc32)S(=O)(=O)c2ccc(C)cc2)cc1 (stereo not given)		inconclusive: 18.4 µM [inhibitor, single point]
COc1cccc(CN2CCN(Cc3ccco3)CC2)c1		inconclusive: 10.3 µM [activator, partial curve, poor fit]
CCC1CCCCN1CC(O)Cn1c2ccccc2n2c(=O)cc(C)c(C#N)c12 (stereo not given)	inactive: -3.94%	
Cc1cccc(C(C)C)c1NS(=O)(=O)c1cn(C)nc1C	inactive: -6.15%	
CC(=O)c1cccc(NC(=O)C(C)OC(=O)c2cccc(-n3cnnn3)c2)c1 (stereo not given)	inactive: 0.655%	
O=C(Cn1cnc2c(nnn2Cc2ccc(Cl)cc2)c1=O)N1CCN(c2ccccc2)CC1		inconclusive: 23.1 µM [inhibitor, single point]
COc1ccc(-n2nc([N+](=O)[O-])c(=NCc3ccc4c(c3)OCO4)n2O)cc1		inconclusive: 8.2 µM [activator, partial curve]
OC(CNCC(c1ccco1)N1CCCCC1)c1ccccc1 (stereo not given)		inconclusive: 4.11 µM [activator, single point]
NC(=O)c1oc2ccccc2c1NC(=O)c1ccc([N+](=O)[O-])o1		inconclusive: 8.2 µM [inhibitor, partial curve, poor fit]
O=C(c1cccs1)c1no[n+]([O-])c1C(=O)c1cccs1		inconclusive: 29.1 µM [inhibitor, single point]
CCN(CC)c1ncnc2c1sc1nc(N3CCOCC3)c3c(c12)CCC3		inconclusive: 5.8 µM [inhibitor, full curve]
O=C(CSc1ccccc1)N1CCCC(N2CCN(c3ccc(F)cc3)CC2)C1 (stereo not given)		inconclusive: 29.1 µM [inhibitor, single point]
Cc1ccc(O)c(N=NC2=C(O)CC(C)(C)CC2=O)c1		inconclusive: 13 µM [activator, partial curve]
Fc1ccc(/C=N/N2CCN(Cc3ccccc3)CC2)cc1		inconclusive: 11.2 µM [activator, partial curve, poor fit]
CN(C)CCNC(=S)Nc1ccc(Cl)cc1Cl		inconclusive: 14.6 µM [activator, single point]
N#Cc1ccc(S(=O)(=O)N2CCc3[nH]c4ccc(F)cc4c3C2)cc1	inactive: 16.4%	
CCN1C(=O)CC(N2CCN(CC(=O)NC(C)C)CC2)C1=O (stereo not given)		inconclusive: 5.62 µM [inhibitor, single point]
COc1ccc(S(=O)(=O)N2CCCCCC2)cc1NC(=O)CN(C)Cc1ccc2c(c1)OCO2		active: 20.6 µM

Retrieved by compound from above:
Structure (SMILES)	activity change, negative = inhibition	Potency
NC(=O)c1oc2ccccc2c1NC(=O)c1ccc([N+](=O)[O-])o1		inconclusive: 8.2 µM [inhibitor, partial curve, poor fit]
COc1ccc2[nH]c(C(=O)N/N=C/c3ccc(OC)c(O)c3)cc2c1		inconclusive: 4.11 µM [inhibitor, partial curve]
